Measured values as given in article doi:10.1101/2020.08.14.246132.
Results are given in words; binding and its absence hold for the method and conditions named. For some assays here: Binding seen in cells or lysates may run through a third protein. Some results given as binding are weak or reduced against the parent protein; the word gives no strength. Sequences can lack the tags named with a protein.

Columns and labels:
[1] = target: T1, FLAG-tagged full-length NLRP1 S1213A (autoproteolysis-deficient) (human) (UniProt Q9C000); test: co-IP
T1 sequence: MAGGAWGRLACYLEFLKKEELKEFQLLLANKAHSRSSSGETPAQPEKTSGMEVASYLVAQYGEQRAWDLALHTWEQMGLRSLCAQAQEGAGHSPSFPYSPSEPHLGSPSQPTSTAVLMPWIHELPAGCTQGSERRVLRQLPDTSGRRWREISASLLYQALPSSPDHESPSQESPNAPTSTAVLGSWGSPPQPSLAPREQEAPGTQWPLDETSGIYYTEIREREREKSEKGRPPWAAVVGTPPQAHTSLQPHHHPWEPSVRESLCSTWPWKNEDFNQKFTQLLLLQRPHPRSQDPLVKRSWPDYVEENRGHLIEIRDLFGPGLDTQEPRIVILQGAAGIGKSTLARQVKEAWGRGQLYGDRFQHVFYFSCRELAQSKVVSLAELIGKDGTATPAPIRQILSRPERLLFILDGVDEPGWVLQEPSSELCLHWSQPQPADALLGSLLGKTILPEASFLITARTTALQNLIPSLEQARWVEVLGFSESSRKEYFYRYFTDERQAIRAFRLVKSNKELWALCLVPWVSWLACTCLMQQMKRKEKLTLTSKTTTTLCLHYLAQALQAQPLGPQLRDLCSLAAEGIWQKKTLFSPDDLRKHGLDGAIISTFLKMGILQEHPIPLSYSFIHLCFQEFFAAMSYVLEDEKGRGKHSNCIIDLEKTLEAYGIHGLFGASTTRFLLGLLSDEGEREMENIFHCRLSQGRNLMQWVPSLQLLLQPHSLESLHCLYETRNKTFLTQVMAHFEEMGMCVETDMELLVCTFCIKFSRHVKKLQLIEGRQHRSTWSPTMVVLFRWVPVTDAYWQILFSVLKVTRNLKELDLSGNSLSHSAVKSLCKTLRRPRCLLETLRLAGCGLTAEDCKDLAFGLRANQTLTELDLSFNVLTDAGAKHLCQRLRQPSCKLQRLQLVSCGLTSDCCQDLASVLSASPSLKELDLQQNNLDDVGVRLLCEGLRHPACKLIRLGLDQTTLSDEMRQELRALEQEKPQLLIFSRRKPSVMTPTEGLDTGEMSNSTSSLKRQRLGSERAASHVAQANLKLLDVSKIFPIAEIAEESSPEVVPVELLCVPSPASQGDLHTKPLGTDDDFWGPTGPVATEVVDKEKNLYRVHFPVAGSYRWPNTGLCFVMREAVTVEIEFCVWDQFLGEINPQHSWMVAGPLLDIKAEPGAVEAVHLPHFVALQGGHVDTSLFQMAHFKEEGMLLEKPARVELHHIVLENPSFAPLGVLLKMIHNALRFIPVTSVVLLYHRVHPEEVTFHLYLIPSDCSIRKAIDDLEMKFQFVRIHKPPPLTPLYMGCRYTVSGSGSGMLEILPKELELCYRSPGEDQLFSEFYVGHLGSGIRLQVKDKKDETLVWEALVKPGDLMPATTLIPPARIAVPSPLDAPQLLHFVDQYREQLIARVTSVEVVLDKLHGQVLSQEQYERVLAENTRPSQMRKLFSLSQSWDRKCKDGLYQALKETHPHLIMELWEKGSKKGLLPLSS

[2] = target: DPP9, short isoform (His-TEV-DPP9), co-expressed with NLRP1ΔΔ for cryo-EM (human), Q86TI2; test: cryo-EM structure; conditions: remark: other sources report otherwise

B1: NLRP1-CT (S1213-S1473) expressed as an N-terminal ubiquitin fusion (Ub-NLRP1-CT), V5-tagged (domain or fragment, UniProt Q9C000-1 1213-1473)
chain: SPLGVLLKMIHNALRFIPVTSVVLLYHRVHPEEVTFHLYLIPSDCSIRKAIDDLEMKFQFVRIHKPPPLTPLYMGCRYTVSGSGSGMLEILPKELELCYRSPGEDQLFSEFYVGHLGSGIRLQVKDKKDETLVWEALVKPGDLMPATTLIPPARIAVPSPLDAPQLLHFVDQYREQLIARVTSVEVVLDKLHGQVLSQEQYERVLAENTRPSQMRKLFSLSQSWDRKCKDGLYQALKETHPHLIMELWEKGSKKGLLPLSS
binding [1]: binds

B2: DPP9, short isoform (His-TEV-DPP9), co-expressed with NLRP1ΔΔ for cryo-EM, Q86TI2-1 1-863 (enzyme)
chain: MATTGTPTADRGDAAATDDPAARFQVQKHSWDGLRSIIHGSRKYSGLIVNKAPHDFQFVQKTDESGPHSHRLYYLGMPYGSRENSLLYSEIPKKVRKEALLLLSWKQMLDHFQATPHHGVYSREEELLRERKRLGVFGITSYDFHSESGLFLFQASNSLFHCRDGGKNGFMVSPMKPLEIKTQCSGPRMDPKICPADPAFFSFINNSDLWVANIETGEERRLTFCHQGLSNVLDDPKSAGVATFVIQEEFDRFTGYWWCPTASWEGSEGLKTLRILYEEVDESEVEVIHVPSPALEERKTDSYRYPRTGSKNPKIALKLAEFQTDSQGKIVSTQEKELVQPFSSLFPKVEYIARAGWTRDGKYAWAMFLDRPQQWLQLVLLPPALFIPSTENEEQRLASARAVPRNVQPYVVYEEVTNVWINVHDIFYPFPQSEGEDELCFLRANECKTGFCHLYKVTAVLKSQGYDWSEPFSPGEDEFKCPIKEEIALTSGEWEVLARHGSKIWVNEETKLVYFQGTKDTPLEHHLYVVSYEAAGEIVRLTTPGFSHSCSMSQNFDMFVSHYSSVSTPPCVHVYKLSGPDDDPLHKQPRFWASMMEAASCPPDYVPPEIFHFHTRSDVRLYGMIYKPHALQPGKKHPTVLFVYGGPQVQLVNNSFKGIKYLRLNTLASLGYAVVVIDGRGSCQRGLRFEGALKNQMGQVEIEDQVEGLQFVAEKYGFIDLSRVAIHGWSYGGFLSLMGLIHKPQVFKVAIAGAPVTVWMAYDTGYTERYMDVPENNQHGYEAGSVALHVEKLPNEPNRLLILHGFLDENVHFFHTNFLVSQLIRAGKPYQLQIYPNERHSIRCPESGEHYEVTLLHFLQEYL
binding [2]: binds
